The list shows a part of the results.
Tests used:
Experiment in all cases: log2 fold change, soluble protein after heating vs DMSO (PISA); higher = thermal stabilisation; K562 lysate, 10 uM; active = over 0.2 and 3.5 SD of the protein, either way, in both replicates (recomputed)
[1] = compound: CC1=C(C=C(C=C1)NC(=O)C2=CC(=CC=C2)C(C)(C)C#N)NC3=CC4=C(C=C3)N=CN(C4=O)C
Procedure, shortened: (§1)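 Values give the log-two fold change in thermal stability against solvent controls, from duplicates. Crude K562 extract at 1 mg/mL protein, made by dounce homogenisation in PBS pH 7.4 with 1 mM MgCl2, was treated with 10 μM compound for 30 min. After 3 min heating across 48°C-58°C, aliquots were pooled, adjusted to 0.5% NP-40 at 4°C and centrifuged at 21,000xg for 90 min. The supernatant was measured by TMTpro 16plex LC-MS/MS with channel sums equalised.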

Amino acid sequences for entries named in this document (tags omitted). A change or cut given only in a name is not applied to a line headed by its entry.
UniProt Q86WA8: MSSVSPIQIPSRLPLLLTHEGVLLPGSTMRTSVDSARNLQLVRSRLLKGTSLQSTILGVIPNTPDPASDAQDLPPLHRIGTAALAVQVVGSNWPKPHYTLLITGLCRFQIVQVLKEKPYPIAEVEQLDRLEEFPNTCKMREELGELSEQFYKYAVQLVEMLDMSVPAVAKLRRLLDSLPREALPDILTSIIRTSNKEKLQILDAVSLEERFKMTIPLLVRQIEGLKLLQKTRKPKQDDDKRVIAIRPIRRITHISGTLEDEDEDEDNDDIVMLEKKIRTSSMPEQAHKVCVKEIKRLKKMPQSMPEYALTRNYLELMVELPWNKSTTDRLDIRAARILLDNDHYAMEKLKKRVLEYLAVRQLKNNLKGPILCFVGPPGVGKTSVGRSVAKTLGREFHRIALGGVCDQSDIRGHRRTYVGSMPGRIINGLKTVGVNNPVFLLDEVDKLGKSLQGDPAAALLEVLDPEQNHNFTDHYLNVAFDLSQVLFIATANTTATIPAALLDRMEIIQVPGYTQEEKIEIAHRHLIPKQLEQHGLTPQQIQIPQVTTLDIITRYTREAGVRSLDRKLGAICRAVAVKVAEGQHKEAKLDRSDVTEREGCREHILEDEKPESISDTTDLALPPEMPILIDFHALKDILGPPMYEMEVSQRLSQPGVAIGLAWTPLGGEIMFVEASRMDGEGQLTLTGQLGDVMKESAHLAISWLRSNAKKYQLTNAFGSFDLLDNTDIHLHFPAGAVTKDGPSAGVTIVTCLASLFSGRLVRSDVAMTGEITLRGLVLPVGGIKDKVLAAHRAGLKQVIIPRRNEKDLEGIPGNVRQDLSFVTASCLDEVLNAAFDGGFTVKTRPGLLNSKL
UniProt Q52LA3: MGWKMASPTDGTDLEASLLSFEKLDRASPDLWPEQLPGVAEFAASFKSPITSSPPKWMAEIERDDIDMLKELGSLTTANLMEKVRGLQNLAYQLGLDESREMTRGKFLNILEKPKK
UniProt Q07954: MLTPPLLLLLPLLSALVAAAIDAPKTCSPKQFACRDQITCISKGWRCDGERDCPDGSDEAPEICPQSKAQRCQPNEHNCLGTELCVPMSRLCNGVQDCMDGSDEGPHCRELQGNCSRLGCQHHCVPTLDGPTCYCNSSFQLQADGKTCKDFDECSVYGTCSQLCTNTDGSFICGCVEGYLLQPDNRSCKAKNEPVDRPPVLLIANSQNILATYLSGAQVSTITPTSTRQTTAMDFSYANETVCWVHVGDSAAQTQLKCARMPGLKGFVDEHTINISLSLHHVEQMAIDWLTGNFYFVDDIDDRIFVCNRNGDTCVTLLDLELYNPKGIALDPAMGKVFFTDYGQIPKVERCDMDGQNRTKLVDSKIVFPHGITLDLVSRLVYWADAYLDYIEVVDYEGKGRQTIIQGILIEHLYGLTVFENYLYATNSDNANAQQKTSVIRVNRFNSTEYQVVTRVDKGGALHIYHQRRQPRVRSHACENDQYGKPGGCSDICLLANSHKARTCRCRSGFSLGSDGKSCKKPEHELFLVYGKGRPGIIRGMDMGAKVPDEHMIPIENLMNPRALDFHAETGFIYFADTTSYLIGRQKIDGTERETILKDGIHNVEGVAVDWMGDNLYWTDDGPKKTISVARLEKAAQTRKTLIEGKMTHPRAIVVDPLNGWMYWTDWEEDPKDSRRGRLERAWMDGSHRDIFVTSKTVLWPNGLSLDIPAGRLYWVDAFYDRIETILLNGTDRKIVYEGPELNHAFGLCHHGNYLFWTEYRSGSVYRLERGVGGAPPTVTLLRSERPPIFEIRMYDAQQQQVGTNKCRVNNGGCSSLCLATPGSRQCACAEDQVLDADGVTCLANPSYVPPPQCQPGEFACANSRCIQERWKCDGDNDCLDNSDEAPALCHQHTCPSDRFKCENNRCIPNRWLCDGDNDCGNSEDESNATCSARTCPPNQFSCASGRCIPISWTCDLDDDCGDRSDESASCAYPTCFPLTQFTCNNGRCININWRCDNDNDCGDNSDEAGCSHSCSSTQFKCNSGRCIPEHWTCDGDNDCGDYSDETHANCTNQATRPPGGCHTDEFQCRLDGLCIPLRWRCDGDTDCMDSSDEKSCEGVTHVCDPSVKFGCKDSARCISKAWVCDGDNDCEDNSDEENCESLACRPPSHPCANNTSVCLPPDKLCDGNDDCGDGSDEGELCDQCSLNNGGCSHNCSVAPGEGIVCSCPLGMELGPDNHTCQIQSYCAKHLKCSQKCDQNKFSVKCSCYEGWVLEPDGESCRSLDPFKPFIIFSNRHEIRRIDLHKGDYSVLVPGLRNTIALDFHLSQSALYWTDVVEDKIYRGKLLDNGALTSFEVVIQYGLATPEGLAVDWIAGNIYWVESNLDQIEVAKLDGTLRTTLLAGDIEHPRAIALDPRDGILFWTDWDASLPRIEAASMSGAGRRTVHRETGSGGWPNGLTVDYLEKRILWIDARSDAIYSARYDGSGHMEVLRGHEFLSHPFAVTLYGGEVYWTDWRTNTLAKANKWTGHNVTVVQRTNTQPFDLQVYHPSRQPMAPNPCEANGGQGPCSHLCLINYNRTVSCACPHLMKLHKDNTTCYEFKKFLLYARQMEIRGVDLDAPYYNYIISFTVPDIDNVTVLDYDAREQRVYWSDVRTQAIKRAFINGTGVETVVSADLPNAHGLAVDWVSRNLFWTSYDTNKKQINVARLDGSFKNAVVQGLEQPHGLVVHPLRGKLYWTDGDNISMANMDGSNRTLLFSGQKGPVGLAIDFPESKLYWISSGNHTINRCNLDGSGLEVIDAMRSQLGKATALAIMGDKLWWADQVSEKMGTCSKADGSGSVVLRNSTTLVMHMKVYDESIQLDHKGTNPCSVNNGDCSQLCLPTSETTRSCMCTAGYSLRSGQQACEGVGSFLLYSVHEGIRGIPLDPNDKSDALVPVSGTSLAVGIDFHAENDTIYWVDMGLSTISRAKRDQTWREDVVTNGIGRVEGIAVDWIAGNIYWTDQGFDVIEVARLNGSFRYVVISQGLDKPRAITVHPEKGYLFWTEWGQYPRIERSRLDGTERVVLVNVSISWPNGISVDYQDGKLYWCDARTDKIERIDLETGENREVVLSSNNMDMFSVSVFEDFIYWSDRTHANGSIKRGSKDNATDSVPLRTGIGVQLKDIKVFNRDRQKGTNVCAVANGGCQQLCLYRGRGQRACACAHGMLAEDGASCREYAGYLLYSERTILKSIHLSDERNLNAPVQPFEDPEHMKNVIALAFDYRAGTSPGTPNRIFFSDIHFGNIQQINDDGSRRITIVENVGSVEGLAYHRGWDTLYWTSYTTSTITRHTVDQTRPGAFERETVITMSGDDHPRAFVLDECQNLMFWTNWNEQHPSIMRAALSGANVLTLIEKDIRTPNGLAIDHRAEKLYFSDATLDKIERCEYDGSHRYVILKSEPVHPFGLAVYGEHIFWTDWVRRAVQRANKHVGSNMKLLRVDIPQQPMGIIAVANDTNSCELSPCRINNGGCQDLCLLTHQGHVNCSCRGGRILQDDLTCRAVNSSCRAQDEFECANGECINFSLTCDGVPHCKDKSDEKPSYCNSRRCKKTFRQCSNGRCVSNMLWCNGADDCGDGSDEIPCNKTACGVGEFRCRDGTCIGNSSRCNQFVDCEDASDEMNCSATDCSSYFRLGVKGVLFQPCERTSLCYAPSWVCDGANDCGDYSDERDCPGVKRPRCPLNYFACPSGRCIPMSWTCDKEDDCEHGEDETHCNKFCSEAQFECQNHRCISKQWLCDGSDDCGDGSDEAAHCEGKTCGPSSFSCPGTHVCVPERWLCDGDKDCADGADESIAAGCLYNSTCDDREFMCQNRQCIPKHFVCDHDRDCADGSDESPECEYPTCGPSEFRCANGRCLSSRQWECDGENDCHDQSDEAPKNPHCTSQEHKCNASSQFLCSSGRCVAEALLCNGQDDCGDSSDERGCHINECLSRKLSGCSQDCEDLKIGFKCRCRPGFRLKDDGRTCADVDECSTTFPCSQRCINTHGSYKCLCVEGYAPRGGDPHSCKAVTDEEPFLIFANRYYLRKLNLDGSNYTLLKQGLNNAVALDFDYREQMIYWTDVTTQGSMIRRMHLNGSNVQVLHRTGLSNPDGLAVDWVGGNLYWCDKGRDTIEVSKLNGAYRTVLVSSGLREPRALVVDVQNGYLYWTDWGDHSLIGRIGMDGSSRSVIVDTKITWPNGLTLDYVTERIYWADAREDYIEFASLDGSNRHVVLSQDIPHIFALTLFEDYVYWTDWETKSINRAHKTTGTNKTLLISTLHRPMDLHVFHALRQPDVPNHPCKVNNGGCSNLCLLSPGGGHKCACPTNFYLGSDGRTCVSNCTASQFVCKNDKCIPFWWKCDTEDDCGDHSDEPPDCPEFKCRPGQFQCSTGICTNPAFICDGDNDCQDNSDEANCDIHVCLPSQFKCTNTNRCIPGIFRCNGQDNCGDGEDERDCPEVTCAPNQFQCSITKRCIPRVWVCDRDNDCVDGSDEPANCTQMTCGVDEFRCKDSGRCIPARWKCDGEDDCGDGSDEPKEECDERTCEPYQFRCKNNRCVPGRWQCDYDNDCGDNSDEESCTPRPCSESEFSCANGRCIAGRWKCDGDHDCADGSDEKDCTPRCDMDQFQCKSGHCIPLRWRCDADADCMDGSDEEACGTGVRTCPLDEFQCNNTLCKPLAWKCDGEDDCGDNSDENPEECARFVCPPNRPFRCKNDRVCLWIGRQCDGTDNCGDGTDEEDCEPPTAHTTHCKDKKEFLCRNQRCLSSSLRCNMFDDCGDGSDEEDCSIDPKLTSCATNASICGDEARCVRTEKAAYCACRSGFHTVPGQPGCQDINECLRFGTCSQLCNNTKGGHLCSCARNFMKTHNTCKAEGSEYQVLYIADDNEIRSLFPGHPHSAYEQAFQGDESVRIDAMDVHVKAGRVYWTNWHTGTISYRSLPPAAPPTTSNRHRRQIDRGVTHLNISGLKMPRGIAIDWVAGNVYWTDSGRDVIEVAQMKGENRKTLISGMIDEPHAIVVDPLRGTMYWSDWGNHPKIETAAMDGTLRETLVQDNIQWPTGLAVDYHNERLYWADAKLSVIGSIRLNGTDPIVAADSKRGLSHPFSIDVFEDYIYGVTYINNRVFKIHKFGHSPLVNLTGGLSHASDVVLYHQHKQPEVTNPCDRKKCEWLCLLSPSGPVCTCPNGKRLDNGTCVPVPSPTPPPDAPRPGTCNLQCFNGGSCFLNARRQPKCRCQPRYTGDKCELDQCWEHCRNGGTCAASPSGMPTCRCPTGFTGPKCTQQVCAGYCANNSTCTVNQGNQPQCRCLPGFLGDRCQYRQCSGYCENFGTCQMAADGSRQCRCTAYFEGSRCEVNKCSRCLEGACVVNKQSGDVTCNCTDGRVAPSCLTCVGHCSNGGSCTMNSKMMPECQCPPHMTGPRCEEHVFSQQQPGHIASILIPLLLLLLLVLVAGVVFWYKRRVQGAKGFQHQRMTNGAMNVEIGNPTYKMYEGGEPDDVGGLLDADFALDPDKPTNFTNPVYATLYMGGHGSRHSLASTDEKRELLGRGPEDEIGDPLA
UniProt Q53QV2: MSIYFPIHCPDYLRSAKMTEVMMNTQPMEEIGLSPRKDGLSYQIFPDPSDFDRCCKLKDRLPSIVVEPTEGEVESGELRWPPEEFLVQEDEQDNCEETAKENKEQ
UniProt P23490: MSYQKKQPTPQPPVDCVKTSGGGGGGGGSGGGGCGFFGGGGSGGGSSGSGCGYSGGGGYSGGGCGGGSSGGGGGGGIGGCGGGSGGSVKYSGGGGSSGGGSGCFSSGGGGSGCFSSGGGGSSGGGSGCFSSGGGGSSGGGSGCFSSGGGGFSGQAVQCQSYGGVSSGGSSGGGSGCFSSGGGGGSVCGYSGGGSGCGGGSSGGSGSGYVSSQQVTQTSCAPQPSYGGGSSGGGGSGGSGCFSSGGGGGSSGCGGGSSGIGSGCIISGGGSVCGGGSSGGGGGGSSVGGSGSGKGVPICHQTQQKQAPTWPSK
UniProt Q7L5N7: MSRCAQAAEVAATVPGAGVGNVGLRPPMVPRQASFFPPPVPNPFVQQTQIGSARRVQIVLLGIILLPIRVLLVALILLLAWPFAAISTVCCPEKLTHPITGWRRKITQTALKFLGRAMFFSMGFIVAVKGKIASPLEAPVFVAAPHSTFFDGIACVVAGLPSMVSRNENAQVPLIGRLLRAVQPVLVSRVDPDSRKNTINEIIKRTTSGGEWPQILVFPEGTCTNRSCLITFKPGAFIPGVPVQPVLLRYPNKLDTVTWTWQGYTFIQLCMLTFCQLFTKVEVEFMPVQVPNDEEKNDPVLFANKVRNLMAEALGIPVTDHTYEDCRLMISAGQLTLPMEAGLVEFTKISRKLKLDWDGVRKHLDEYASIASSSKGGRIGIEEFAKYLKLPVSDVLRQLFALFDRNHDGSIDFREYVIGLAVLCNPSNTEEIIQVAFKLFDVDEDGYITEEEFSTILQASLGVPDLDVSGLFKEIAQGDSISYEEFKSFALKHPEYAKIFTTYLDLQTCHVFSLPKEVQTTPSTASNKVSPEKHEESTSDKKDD
UniProt Q969L4: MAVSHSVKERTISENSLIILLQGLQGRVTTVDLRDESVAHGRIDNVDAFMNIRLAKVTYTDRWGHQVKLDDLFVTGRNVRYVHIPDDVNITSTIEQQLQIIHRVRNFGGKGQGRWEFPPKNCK

[2] = compound: C/C(=N\NC(=O)C1=CC(=CC=C1)S(=O)(=O)N2CCOCC2)/C3=C(C=CC(=C3)Cl)O
Procedure, shortened: as §1

[3] = compound: C1=CC2=C(C=CC(=C2)/C=C\3/C(=O)NC(=NCC4=CC=CS4)S3)N=C1
Procedure, shortened: as §1

[4] = compound: C1=CC=C2C(=C1)C3=NNC4=CC=CC(=C43)C2=O
Procedure, shortened: as §1

[5] = compound: C1CCN(C1)C(=O)NC2=CC=CC(=C2)NC3=NC=C(C(=N3)NCCC4=CN=CN4)Br
Procedure, shortened: as §1

[6] = compound: C1CN(CCC1(CC2=CC=C(C=C2)Cl)N)C3=NC=NC4=C3C=CN4
Procedure, shortened: as §1

[7] = compound: CC1=C(C(CC(=O)N1)C2=CC=C(C=C2)C(F)(F)F)C(=O)NC3=C(C=C4C(=C3)C=NN4)F
Procedure, shortened: as §1

[8] = compound: CC(=O)c1cnc2ccc(-c3cc(Cl)c(O)c(Cl)c3)nc2c1N[C@H]1CC[C@H](CN(C)C)CC1
Procedure, shortened: as §1

[9] = compound: CC1=CC=C(C=C1)SC2=C3C=C(SC3=CN=C2)C(=O)N
Procedure, shortened: as §1

[10] = compound: C1=CC2=NC=CN=C2C=C1/C=C/3\C(=O)NC(=O)S3
Procedure, shortened: as §1

[11] = compound: C=CC(=O)N1CCC[C@@H](n2nc(-c3ccc(Oc4ccccc4)cc3)c3c(N)ncnc32)C1 [ibrutinib]
Procedure, shortened: as §1

[12] = compound: C1=CC=C(C=C1)C2=NC(=C(N2)C3=CC=NC=C3)C4=CC(=C(C=C4)Cl)O
Procedure, shortened: as §1

[13] = compound: C1COCCN1CCN2C3=CC=CC=C3N=C2NC(=O)C4=CC(=CC=C4)[N+](=O)[O-] [IRAK-1-4 Inhibitor I]
Procedure, shortened: as §1

[14] = compound: CC(C)(C)Cn1c(N)nc2ccc(-c3[nH]c(C(C)(C)C)nc3-c3ccc(F)cc3)nc21 [ralimetinib]
Procedure, shortened: as §1

[15] = compound: CC(C)(O)CC(=O)NCCn1ccc2ncnc(Nc3ccc(Oc4cccc(C(F)(F)F)c4)c(Cl)c3)c21
Procedure, shortened: as §1

[16] = compound: CC1=C(C=C(C=C1)NC(=O)C2=CC(=CC=C2)N(C)C)NC(=O)C3=CC=C(C=C3)O
Procedure, shortened: as §1

[17] = compound: CC1=C(C2=C(C=C1)C(=O)C3=CC=CC=C3N2CCCN)C
Procedure, shortened: as §1

[18] = compound: C#Cc1cccc(Nc2ncnc3cc(OCCOC)c(OCCOC)cc23)c1 [erlotinib]
Procedure, shortened: as §1

[19] = compound: C1=CC(=CC=C1C2=NC3=C(N2)C=C(C=C3)C(=O)N)OC4=CC=C(C=C4)Cl
Procedure, shortened: as §1

[20] = compound: CC(C)C1=C2N=C(C=C(N2N=C1)NCC3=CC=CC=C3)NCCCCCCN
Procedure, shortened: as §1

Measured: log2 fold change

LINC00526 (UniProt Q96FQ7)
inactive: [1] -0.099

LCA5 (UniProt Q86VQ0)
inactive: [2] 0.068 | [3] 0.059 | [4] -0.216 | [5] -0.032 | [6] 0.031 | [7] 0.098 | [1] 0.07

LDHA isoform 4 (UniProt P00338)
inactive: [8] -0.026 | [9] -0.089

LIPT2 (UniProt A6NK58)
inactive: [10] 0.137 | [5] 0.035 | [6] 0.097 | [11] -0.242 | [8] 0.132 | [9] -0.113

2 entries drawn at random from those above, as already listed:
LINC00526 (UniProt Q96FQ7)
inactive: [1] -0.099

LCA5 (UniProt Q86VQ0)
inactive: [2] 0.068 | [3] 0.059 | [4] -0.216 | [5] -0.032 | [6] 0.031 | [7] 0.098 | [1] 0.07

(continued)

LRRC25 (UniProt Q8N386)
inactive: [5] -0.038 | [6] -0.068 | [8] -0.002 | [1] 0.06 | [9] 0.12

LSR isoform 3 (UniProt Q86X29)
inactive: [1] -0.04

LRRC8E (UniProt Q6NSJ5)
inactive: [2] -0.069 | [3] -0.098 | [12] -0.003 | [4] -0.08 | [5] -0.039 | [6] -0.075 | [13] -0.034 | [14] 0 | [15] 0.005 | [1] -0.005 | [16] 0.099

LRRC45 (UniProt Q96CN5)
inactive: [17] 0.036

LEMD2 (UniProt Q8NC56)
inactive: [18] 0.034 | [19] -0.083 | [12] -0.031 | [5] -0.118 | [6] -0.042 | [13] -0.018 | [8] 0 | [14] 0.048 | [15] -0.011 | [20] 0.08 | [17] -0.003 | [1] 0.047 | [16] -0.031 | [9] -0.136

LRG1 (UniProt P02750)
inactive: [18] -0.019 | [19] -0.02 | [10] -0.016 | [5] -0.077 | [6] 0.066 | [11] -0.045 | [20] 0.042 | [1] 0.078

LONP2 (UniProt Q86WA8)
inactive: [2] 0.57 | [3] 0.207 | [4] -0.328

LIMK1 (UniProt P53667)
inactive: [2] 0.114 | [3] -0.088 | [10] 0.133 | [12] -0.002 | [4] 0.029 | [5] 0.068 | [6] -0.05 | [13] 0.06 | [8] -0.04 | [14] -0.125 | [15] -0.161 | [7] -0.067 | [17] 0.026 | [1] -0.085 | [16] 0.059 | [9] -0.148
active: [11] 0.546

LIN52 (UniProt Q52LA3)
inactive: [18] -0.149 | [19] 0.243 | [12] 0.031 | [13] 0.001 | [8] 0.007 | [14] 0.031 | [15] -0.021 | [20] -0.036 | [17] 0.173 | [1] 0.058 | [16] -0.116 | [9] -0.033

LRP1 (UniProt Q07954)
inactive: [2] 0.266 | [3] -0.092 | [4] -0.211 | [5] -0.196 | [6] -0.055 | [8] -0.017 | [1] 0.378 | [9] -0.049

LIG1 isoform 3 (UniProt P18858)
inactive: [12] 0.013 | [5] 0.013 | [6] 0.065 | [13] 0.102 | [14] -0.086 | [15] -0.126 | [16] 0.036

LIMD2 (UniProt Q9BT23)
inactive: [10] -0.076 | [11] 0.032 | [1] 0.098

LHFPL2 (UniProt Q6ZUX7)
inactive: [10] -0.103 | [11] 0.185 | [1] 0.074

LDHD (UniProt Q86WU2)
inactive: [10] -0.193 | [5] -0.062 | [6] 0.049 | [11] 0.011

LNX1 (UniProt Q8TBB1)
inactive: [17] 0.106 | [1] -0.022

LRPPRC (UniProt H7C3W8)
inactive: [2] -0.13 | [3] -0.053 | [4] -0.3

LRCH1 isoform 3 (UniProt Q9Y2L9)
inactive: [10] -0.157 | [12] -0.303 | [13] 0.24 | [11] 0.154 | [8] -0.014 | [14] 0.198 | [15] -0.224 | [7] 0.009 | [17] 0.048 | [16] -0.049 | [9] 0.111

LONRF2 (UniProt Q1L5Z9)
inactive: [18] 0.098 | [19] 0.058 | [5] 0.069 | [6] 0.214 | [20] 0 | [7] 0.05 | [17] 0.029 | [1] 0.056

LATS1 (UniProt O95835)
inactive: [18] -0.035 | [19] -0.127 | [20] 0.011 | [7] 0.315 | [17] 0.069

LBH (UniProt Q53QV2)
inactive: [18] 0.066 | [19] -0.074 | [12] -0.129 | [5] 0.058 | [6] 0.221 | [13] -0.039 | [14] 0.022 | [15] -0.116 | [20] 0.023 | [17] -0.096 | [16] -0.153

LRRIQ1 (UniProt Q96JM4)
active: [1] 0.671
inactive: [2] 0.038 | [3] -0.003 | [12] 0.041 | [4] -0.003 | [13] -0.083 | [8] -0.036 | [14] -0.041 | [15] 0.019 | [16] 0.047 | [9] -0.069

LOR (UniProt P23490)
inactive: [10] 0.326 | [11] -0.437

LMBR1 isoform 3 (UniProt Q8WVP7)
inactive: [10] -0.1 | [11] -0.053 | [1] -0.076

LEF1 (UniProt Q9UJU2)
inactive: [2] -0.173 | [3] -0.07 | [12] -0.05 | [4] -0.041 | [13] 0.056 | [14] 0.122 | [15] -0.016 | [1] 0.021 | [16] 0.097

LCOR isoform 3 (UniProt Q96JN0)
inactive: [8] 0.134 | [9] -0.065

LRRC9 (UniProt Q6ZRR7)
inactive: [2] -0.037 | [3] 0.02 | [4] -0.01 | [5] -0.044 | [6] -0.07 | [1] 0.042

LPCAT2 (UniProt Q7L5N7)
inactive: [2] 0.394 | [3] 0.09 | [10] -0.019 | [4] 0.07 | [5] -0.002 | [6] 0.088 | [11] 0.139 | [7] 0.136 | [17] 0.148 | [1] 0.002

LDHA (UniProt F5GZQ4)
inactive: [10] -0.259 | [12] -0.055 | [13] -0.099 | [11] 0.157 | [8] -0.063 | [14] 0.102 | [15] 0.012 | [7] -0.043 | [16] 0.057 | [9] 0.053

LSM10 (UniProt Q969L4)
inactive: [18] 0.04 | [19] 0.16 | [10] 0.058 | [12] -0.013 | [13] -0.089 | [11] 0.08 | [8] 0.043 | [14] 0.083 | [15] 0.029 | [20] -0.043 | [17] -0.06 | [16] 0.028 | [9] -0.002

LBHD1 (UniProt Q9BQE6)
inactive: [1] -0.049

LRP5 (UniProt O75197)
inactive: [18] -0.142 | [19] -0.1 | [5] -0.062 | [6] 0.193 | [20] -0.11 | [17] 0.114

LITAF (UniProt Q99732)
inactive: [18] 0.009 | [19] -0.126 | [12] -0.054 | [5] 0.034 | [6] -0.072 | [13] 0.011 | [8] -0.013 | [14] -0.026 | [15] 0.061 | [20] -0.063 | [17] 0.057 | [1] 0.06 | [16] 0.066 | [9] -0.066

LRRC7 (UniProt Q96NW7)
active: [3] -0.493
inactive: [2] 0.042 | [10] -0.108 | [12] 0.065 | [4] 0.038 | [5] 0.02 | [6] 0.067 | [13] 0.048 | [11] -0.081 | [8] 0.026 | [14] -0.115 | [15] -0.073 | [17] 0.041 | [1] -0.062 | [16] 0.09 | [9] 0.086

LPGAT1 (UniProt Q92604)
inactive: [18] 0.087 | [19] 0.032 | [12] -0.036 | [5] -0.148 | [6] 0.097 | [13] -0.147 | [14] 0.089 | [15] 0.068 | [20] -0.15 | [7] 0.051 | [17] 0.128 | [16] 0.161

LIN28A (UniProt Q9H9Z2)
inactive: [18] -0.082 | [19] -0.046 | [10] 0.019 | [11] 0.101 | [20] 0.129 | [7] -0.045

LRP8 (UniProt Q14114)
inactive: [2] -0.087 | [3] 0.071 | [10] -0.124 | [12] 0.009 | [4] -0.072 | [5] -0.106 | [6] -0.06 | [13] -0.088 | [11] 0.233 | [8] 0.061 | [14] 0.032 | [15] -0.002 | [1] 0.082 | [16] -0.013 | [9] -0.007
